According to the supplement of paper PMC4604168 (melanoma cell lines):
The other results are listed elsewhere or left out. Repeats are few or missing, and single values can be far off.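 Cells were imaged in 1,536-well plates, and nuclei stained with an antibody against cleaved PARP were counted against all DNA-stained nuclei to give the apoptosis fraction. Screening doses were chosen to leave most cells alive, and resting and induced cleaved-PARP levels differ strongly between cell lines.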

The compounds below were run on LB2518-MEL (assay: cleaved PARP positive nuclei fraction relative to DMSO control; melanoma cells; higher = more apoptosis). Conditions: library dose: low library concentration; 72 h.
With `Cc1cc(Nc2cc(N3CCN(C)CC3)nc(Sc3ccc(NC(=O)C4CC4)cc3)n2)n[nH]1` [Tozasertib] + Cc1ccc(NC(=O)c2cccc(N(C)C)c2)cc1NC(=O)c1ccc(O)cc1 [ZM336372] (first compound 0.006 µM, partner dose 2 µM) the “cleaved PARP positive nuclei fraction” value was 57.7%.
For `CC[C@]1(O)C[C@H]2CN(CCc3c([nH]c4ccccc34)[C@@](C(=O)OC)(c3cc4c(cc3OC)N(C=O)[C@H]3[C@@](O)(C(=O)OC)[C@H](OC(C)=O)[C@]5(CC)C=CCN6CC[C@]43[C@@H]65)C2)C1` [vincristine] + CC1(C)NC(=O)N(c2ccc([N+](=O)[O-])c(C(F)(F)F)c2)C1=O [nilutamide] (first compound 0.0001 µM, partner dose 1 µM), the “cleaved PARP positive nuclei fraction” value was 22.2%.
For `N#CC[C@H](C1CCCC1)n1cc(-c2ncnc3[nH]ccc23)cn1` [ruxolitinib] + CO[C@@H]1[C@H](N(C)C(=O)c2ccccc2)C[C@H]2O[C@]1(C)n1c3ccccc3c3c4c(c5c6ccccc6n2c5c31)C(=O)NC4 [Midostaurin] (first compound 1 µM, partner dose 0.08 µM), the “cleaved PARP positive nuclei fraction” value was 86.6%.
In the case of `CCCCCCCCCCCCCCCCCCOP(=O)([O-])OC1CC[N+](C)(C)CC1` [Perifosine] + COc1cc2c(Oc3ccc4[nH]c(C)cc4c3F)ncnc2cc1OCCCN1CCCC1 [cediranib] (first compound 0.4 µM, partner dose 0.4 µM), the “cleaved PARP positive nuclei fraction” value is reported as 50.7%.
In the case of `N#CC[C@H](C1CCCC1)n1cc(-c2ncnc3[nH]ccc23)cn1` [ruxolitinib] + COc1cc2c(Oc3ccc4[nH]c(C)cc4c3F)ncnc2cc1OCCCN1CCCC1 [cediranib] (first compound 1 µM, partner dose 0.4 µM), the “cleaved PARP positive nuclei fraction” value is reported as 44.7%.
In the case of `O=C(/C=C/c1cccnc1)NCCCCC1CCN(C(=O)c2ccccc2)CC1` + O=C(O)c1ccc(-c2c[nH]c3ncc(-c4ccccc4)cc23)cc1C1CCCC1 [GSK650394] (first compound 0.01 µM, partner dose 0.16 µM), the “cleaved PARP positive nuclei fraction” value is reported as 221%.
For `Cc1cc(Nc2cc(N3CCN(C)CC3)nc(Sc3ccc(NC(=O)C4CC4)cc3)n2)n[nH]1` [Tozasertib] + NCC(=O)Nc1ccc(-n2nc(C(F)(F)F)cc2-c2ccc3c(ccc4ccccc43)c2)cc1 [OSU03012] (first compound 0.006 µM, partner dose 1 µM), the “cleaved PARP positive nuclei fraction” value was 54.9%.
In the case of `Cc1cn(-c2cc(NC(=O)c3ccc(C)c(Nc4nccc(-c5cccnc5)n4)c3)cc(C(F)(F)F)c2)cn1` [nilotinib] + CO[C@@H]1[C@H](N(C)C(=O)c2ccccc2)C[C@H]2O[C@]1(C)n1c3ccccc3c3c4c(c5c6ccccc6n2c5c31)C(=O)NC4 [Midostaurin] (first compound 0.2 µM, partner dose 0.08 µM), the “cleaved PARP positive nuclei fraction” value is reported as 101%.
`Cc1ccc(Nc2nccc(N(C)c3ccc4c(C)n(C)nc4c3)n2)cc1S(N)(=O)=O` [Pazopanib] + CN(NC(=O)CC(=O)NN(C)C(=S)c1ccccc1)C(=S)c1ccccc1 [STA4783] (first compound 0.4 µM, partner dose 0.006 µM) was tested, and the “cleaved PARP positive nuclei fraction” value was 82.8%.
`COc1cc([C@@H]2c3cc4c(cc3[C@@H](O[C@@H]3O[C@@H]5CO[C@@H](C)O[C@H]5[C@H](O)[C@H]3O)[C@H]3COC(=O)[C@H]23)OCO4)cc(OC)c1O` [etoposide] + Cc1ccc(NC(=O)c2cccc(N(C)C)c2)cc1NC(=O)c1ccc(O)cc1 [ZM336372] (first compound 0.02 µM, partner dose 2 µM) was tested, and the “cleaved PARP positive nuclei fraction” value was 79.4%.
In the case of `O=C(/C=C/c1cccnc1)NCCCCC1CCN(C(=O)c2ccccc2)CC1` + CN(NC(=O)CC(=O)NN(C)C(=S)c1ccccc1)C(=S)c1ccccc1 [STA4783] (first compound 0.01 µM, partner dose 0.006 µM), the “cleaved PARP positive nuclei fraction” value is reported as 195%.
